Earlier results in patent publication US20090131523A1, “Lipid compositions for the treatment and prevention of proliferative diseases and for the reduction of incidences of mutagenesis and carinogenesis” (Enzymotec Ltd., priority 2007, published 2009).
At least one compound was matched to its structure with a doubt left.

Sequences of proteins named here, by UniProt entry; tags and fusion partners are left off. A change or cut given only in a name is not applied to a line headed by its entry.
UniProt Q05655: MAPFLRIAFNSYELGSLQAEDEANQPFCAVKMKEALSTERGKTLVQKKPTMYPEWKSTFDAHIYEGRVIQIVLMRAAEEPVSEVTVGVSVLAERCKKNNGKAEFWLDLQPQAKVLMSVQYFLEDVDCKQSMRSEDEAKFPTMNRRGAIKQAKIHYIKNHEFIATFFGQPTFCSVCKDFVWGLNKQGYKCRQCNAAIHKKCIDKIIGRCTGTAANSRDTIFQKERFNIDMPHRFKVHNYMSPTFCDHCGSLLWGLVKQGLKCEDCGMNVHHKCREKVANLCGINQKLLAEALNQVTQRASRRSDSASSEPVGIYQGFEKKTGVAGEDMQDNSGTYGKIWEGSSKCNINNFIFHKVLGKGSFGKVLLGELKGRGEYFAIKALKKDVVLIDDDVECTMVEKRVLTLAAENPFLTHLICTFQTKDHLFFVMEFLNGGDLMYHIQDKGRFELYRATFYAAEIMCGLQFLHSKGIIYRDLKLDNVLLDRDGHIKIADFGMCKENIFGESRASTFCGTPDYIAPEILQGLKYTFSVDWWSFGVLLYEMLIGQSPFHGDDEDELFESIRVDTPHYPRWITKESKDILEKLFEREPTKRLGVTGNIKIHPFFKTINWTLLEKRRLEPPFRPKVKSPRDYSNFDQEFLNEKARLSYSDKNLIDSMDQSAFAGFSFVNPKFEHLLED

Tests used:
[1] = test system: human breast cancer cell lines; conditions: established human breast cancer cell lines; Hardy et al. 2000; cited from earlier work
[2] = molecular target: PKC-δ (Homo sapiens, UniProt Q05655); conditions: Eitel et al. 2003; cited from earlier work

Row | SMILES | effect on cell proliferation [1] | induced effect of PKC-δ [2]
1 | CCCCCCCC/C=C\CCCCCCCC(=O)O [Oleate] | stimulate cell proliferation | 
2 | CCCCCCCCCCCCCCCC(=O)O [palmitate] | inhibit cell proliferation | proapoptotic effect of PKC-δ
3 | CCCCCCCCCCCCCCCCCC(=O)O [stearate] |  | proapoptotic effect of PKC-δ
